Assay results: the supplement of paper PMC10849652
Some of the results follow.

Protein sequences, listed by entry. Tags and fused reporters are not part of them. Lines headed by an entry give the natural chain unless they say otherwise; changes in a name come on top.
UniProt P31483: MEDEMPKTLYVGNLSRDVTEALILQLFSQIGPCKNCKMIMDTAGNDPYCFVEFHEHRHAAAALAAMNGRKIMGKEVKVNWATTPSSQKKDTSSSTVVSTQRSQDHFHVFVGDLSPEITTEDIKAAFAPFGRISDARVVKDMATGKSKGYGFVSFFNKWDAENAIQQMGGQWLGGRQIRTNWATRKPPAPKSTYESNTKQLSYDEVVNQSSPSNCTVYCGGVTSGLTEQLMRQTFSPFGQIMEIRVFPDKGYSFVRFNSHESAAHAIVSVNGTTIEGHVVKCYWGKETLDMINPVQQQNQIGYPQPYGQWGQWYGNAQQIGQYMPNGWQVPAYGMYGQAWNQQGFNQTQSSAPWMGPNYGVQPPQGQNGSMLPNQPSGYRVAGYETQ
UniProt Q9NS93: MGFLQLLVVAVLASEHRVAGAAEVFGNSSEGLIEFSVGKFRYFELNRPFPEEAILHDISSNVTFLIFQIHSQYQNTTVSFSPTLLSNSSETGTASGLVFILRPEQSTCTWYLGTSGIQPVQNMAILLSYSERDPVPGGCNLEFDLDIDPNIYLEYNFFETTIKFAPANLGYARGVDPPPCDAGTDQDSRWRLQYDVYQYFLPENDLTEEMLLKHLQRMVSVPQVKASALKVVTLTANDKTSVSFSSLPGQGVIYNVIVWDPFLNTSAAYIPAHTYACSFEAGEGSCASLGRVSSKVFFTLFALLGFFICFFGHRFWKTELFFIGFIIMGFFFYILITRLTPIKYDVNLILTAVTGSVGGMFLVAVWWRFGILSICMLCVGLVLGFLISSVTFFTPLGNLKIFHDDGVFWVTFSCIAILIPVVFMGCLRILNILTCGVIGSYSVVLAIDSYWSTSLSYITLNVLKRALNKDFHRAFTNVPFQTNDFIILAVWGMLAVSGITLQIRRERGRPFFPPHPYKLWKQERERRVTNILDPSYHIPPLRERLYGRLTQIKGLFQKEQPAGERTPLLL
UniProt Q969X1: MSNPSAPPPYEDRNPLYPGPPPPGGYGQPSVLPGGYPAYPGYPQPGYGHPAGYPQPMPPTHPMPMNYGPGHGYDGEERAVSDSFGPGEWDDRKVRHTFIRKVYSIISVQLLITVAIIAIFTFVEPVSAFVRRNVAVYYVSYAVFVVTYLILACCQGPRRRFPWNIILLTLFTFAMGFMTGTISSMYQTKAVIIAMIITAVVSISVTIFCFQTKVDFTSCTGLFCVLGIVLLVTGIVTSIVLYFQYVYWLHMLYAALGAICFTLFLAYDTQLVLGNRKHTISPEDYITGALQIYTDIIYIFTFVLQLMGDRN
UniProt Q6I9Y2: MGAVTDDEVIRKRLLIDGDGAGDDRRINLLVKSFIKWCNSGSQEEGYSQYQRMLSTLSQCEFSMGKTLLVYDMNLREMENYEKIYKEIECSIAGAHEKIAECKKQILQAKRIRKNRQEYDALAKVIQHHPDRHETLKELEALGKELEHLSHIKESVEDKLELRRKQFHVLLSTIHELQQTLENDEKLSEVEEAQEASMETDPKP
UniProt Q9NXG2: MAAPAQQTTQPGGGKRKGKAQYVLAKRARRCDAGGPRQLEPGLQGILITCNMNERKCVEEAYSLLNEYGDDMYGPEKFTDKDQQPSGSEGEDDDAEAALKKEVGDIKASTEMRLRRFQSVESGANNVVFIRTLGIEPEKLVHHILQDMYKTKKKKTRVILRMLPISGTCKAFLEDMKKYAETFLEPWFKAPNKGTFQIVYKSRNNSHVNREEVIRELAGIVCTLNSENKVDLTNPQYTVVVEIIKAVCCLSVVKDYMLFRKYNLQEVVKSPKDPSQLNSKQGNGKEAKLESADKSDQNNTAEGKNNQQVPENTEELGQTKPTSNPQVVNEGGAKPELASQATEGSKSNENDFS
UniProt Q9P2C4: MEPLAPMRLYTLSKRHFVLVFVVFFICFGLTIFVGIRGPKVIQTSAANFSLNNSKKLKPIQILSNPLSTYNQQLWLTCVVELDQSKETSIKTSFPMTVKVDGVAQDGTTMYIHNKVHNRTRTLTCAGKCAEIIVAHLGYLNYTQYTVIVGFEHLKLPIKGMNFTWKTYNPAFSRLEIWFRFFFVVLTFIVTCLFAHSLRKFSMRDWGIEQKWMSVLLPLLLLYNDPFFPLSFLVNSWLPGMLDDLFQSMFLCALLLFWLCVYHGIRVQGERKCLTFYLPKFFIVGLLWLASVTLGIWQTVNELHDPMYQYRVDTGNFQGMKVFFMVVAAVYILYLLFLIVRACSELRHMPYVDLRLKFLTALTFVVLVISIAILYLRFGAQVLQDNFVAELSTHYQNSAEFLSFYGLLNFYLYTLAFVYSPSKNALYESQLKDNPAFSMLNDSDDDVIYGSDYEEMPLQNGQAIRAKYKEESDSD
UniProt Q9Y5L4: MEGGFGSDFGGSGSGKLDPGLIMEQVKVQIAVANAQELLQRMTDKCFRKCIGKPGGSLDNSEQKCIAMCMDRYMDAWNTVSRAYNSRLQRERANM
UniProt Q9UDY2: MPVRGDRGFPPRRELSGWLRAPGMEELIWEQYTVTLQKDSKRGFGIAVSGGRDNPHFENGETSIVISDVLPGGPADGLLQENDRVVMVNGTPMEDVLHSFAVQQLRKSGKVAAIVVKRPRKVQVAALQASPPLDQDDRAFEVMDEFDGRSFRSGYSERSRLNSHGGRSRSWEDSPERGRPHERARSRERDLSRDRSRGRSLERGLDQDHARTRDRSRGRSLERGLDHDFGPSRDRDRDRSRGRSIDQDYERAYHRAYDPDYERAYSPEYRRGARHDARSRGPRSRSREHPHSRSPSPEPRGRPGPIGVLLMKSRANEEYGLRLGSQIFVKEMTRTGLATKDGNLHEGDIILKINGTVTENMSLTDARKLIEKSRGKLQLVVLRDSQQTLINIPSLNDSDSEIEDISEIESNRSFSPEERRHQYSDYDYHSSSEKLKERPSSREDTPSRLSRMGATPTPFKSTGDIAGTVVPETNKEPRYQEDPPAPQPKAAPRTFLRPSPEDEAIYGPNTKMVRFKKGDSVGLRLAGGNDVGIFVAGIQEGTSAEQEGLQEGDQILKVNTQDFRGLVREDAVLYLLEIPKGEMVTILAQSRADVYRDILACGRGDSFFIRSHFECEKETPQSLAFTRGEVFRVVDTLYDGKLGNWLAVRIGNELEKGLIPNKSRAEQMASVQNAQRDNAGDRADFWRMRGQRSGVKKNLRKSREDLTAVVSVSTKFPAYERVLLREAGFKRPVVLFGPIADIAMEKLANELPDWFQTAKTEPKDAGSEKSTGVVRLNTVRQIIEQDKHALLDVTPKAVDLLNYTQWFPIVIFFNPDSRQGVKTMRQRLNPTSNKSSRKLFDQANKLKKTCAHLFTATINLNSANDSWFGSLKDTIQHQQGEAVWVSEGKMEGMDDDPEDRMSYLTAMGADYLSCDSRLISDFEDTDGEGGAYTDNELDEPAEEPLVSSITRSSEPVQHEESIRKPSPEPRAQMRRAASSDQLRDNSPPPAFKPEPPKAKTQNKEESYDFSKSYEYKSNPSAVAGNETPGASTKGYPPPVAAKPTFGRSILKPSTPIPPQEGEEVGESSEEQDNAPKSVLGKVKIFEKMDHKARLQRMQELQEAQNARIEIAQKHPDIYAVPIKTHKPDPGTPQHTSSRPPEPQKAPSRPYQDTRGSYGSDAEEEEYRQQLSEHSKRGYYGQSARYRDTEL
UniProt Q99805: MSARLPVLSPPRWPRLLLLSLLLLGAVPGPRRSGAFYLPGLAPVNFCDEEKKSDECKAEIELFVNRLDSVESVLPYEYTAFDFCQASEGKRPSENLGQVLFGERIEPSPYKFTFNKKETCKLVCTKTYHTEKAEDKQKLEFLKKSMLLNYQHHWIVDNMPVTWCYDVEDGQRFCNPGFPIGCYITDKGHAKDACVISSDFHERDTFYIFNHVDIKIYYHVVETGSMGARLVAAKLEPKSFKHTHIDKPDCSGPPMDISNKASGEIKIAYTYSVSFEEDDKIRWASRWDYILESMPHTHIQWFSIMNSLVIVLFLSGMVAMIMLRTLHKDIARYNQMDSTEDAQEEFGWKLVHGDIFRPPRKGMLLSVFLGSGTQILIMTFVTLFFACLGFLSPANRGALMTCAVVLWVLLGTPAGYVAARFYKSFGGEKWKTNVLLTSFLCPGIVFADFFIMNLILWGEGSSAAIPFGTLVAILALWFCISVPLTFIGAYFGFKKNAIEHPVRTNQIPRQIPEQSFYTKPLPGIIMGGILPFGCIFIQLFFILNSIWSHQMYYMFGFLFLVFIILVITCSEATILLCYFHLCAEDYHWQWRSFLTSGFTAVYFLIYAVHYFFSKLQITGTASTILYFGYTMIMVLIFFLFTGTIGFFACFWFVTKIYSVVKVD
UniProt Q96CP7: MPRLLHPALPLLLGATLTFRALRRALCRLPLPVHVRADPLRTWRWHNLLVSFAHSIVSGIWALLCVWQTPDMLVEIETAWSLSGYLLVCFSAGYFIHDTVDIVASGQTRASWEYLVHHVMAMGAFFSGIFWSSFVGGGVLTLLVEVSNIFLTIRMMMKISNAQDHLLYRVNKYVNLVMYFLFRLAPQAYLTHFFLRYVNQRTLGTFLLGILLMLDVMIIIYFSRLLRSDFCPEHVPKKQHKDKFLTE
UniProt Q9NR96: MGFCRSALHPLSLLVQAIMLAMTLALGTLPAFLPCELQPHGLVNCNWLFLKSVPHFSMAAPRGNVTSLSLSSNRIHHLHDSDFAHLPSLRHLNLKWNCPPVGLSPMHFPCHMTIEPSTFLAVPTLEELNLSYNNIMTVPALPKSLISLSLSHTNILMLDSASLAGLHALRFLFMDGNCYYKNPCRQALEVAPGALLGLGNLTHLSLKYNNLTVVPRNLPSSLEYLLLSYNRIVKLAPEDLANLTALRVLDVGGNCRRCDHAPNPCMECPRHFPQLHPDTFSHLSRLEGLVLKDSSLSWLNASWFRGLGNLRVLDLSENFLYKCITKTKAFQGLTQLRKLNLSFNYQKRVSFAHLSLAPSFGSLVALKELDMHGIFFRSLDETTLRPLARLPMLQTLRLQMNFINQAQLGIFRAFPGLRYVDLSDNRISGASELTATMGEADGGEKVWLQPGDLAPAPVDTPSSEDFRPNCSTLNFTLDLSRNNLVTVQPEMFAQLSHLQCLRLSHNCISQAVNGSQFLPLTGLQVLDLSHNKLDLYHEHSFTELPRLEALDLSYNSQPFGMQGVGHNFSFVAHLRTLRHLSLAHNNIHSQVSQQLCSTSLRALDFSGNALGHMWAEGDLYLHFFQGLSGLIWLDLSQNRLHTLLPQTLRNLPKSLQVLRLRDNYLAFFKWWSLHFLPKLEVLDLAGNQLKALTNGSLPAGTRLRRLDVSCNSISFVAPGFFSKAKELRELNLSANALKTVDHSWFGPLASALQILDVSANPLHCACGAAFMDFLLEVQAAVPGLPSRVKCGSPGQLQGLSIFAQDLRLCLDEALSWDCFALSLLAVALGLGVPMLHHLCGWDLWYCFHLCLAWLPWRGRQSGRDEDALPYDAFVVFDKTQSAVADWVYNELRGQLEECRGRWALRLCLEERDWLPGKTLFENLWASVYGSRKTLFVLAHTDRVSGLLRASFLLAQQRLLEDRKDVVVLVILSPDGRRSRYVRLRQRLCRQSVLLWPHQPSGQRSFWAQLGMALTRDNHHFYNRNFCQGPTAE
UniProt Q9P0S9: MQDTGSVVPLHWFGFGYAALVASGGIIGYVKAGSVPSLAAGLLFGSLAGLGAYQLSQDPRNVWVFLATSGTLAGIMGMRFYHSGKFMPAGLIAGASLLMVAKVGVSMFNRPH
UniProt Q9NWX6: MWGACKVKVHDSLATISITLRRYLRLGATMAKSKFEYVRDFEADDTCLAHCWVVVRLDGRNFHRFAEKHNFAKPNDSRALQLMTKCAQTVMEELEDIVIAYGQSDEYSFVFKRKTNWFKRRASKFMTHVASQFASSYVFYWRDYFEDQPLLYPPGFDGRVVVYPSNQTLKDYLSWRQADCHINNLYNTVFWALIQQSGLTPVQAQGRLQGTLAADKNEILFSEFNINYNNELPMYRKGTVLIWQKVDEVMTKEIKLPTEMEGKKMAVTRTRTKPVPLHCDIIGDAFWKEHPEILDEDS
UniProt Q9BVK6: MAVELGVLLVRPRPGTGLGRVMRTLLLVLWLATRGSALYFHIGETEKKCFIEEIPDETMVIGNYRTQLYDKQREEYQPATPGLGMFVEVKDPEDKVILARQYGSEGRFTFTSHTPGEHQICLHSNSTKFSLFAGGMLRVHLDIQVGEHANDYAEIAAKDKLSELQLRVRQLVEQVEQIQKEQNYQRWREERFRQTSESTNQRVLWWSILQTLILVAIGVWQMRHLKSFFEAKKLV
UniProt Q9BVW5: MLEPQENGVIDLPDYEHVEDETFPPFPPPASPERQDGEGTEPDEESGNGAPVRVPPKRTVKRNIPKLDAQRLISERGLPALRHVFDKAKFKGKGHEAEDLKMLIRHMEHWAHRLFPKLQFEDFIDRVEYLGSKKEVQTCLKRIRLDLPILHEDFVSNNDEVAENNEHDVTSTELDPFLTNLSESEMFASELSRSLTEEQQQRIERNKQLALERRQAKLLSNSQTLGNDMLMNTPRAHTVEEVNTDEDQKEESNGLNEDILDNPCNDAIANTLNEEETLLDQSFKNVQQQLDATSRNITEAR
UniProt Q8TBQ9: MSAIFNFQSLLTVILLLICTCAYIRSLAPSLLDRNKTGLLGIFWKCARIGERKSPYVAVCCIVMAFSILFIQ

Assays:
Assay in all cases: log2 fold change, soluble protein after heating vs DMSO (PISA); higher = thermal stabilisation; K562 lysate, 10 uM; active = over 0.2 and 3.5 SD of the protein, either way, in both replicates (recomputed)
[1] = compound: C1=CC=C(C=C1)[C@H](COC2=CC3=C(C=C2)NC(=O)N3)NC(=O)C4=CC=CN(C4=O)CC5=CC(=C(C=C5)F)F
In short: (§1)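 K562 pellets were dounce-homogenised in PBS pH 7.4 containing 1 mM MgCl2, and the crude extract, at 1 mg/mL protein, was exposed to 10 μM compound for 30 min. Aliquots were heated for 3 min across 48°C-58°C, pooled, brought to 0.5% NP-40 at 4°C and spun at 21,000xg for 90 min, with the supernatant taken as soluble protein. TMTpro 16plex LC-MS/MS with equalised channel sums quantified that protein. Values are log-two fold changes in thermal stability relative to solvent controls, taken from duplicates.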

[2] = compound: CC1=C(SC2=C1C(=N[C@H](C3=NN=C(N32)C)CC(=O)N)C4=CC=C(C=C4)Cl)C
In short: as §1

[3] = compound: CC1=C2C(=CC=C1)N=C(N(C2=O)C3=CC=CC=C3C)CN4C=NC5=C(N=CN=C54)N
In short: as §1

[4] = compound: Cc1sc2c(c1C)C(c1ccc(Cl)cc1)=N[C@@H](CC(=O)OC(C)(C)C)c1nnc(C)n1-2
In short: as §1

[5] = compound: c1ccc([C@@H]2C[C@H]2NC2CCNCC2)cc1
In short: as §1

Measured: log2 fold change

TMED5 (UniProt Q9Y3A6)
inactive: [1] -0.013 | [2] -0.052 | [3] 0.027 | [4] -0.019 | [5] 0.053

THNSL1 (UniProt Q8IYQ7)
inactive: [1] 0.045 | [2] 0.045 | [3] 0.047 | [4] -0.005 | [5] 0.002

TIA1 (UniProt P31483)
inactive: [1] 0.03 | [2] 0.025 | [3] 0.028 | [4] 0.049 | [5] 0.024

TIMM44 (UniProt O43615)
inactive: [1] -0.062 | [2] 0 | [3] 0.034 | [4] -0.035 | [5] -0.003

TLE3 isoform 4 (UniProt Q04726)
inactive: [1] 0.01 | [2] -0.033 | [3] 0.024 | [4] 0.025 | [5] 0.007

TM9SF1 (UniProt O15321)
inactive: [1] 0.093 | [2] -0.096 | [3] 0.116 | [4] -0.025

TM9SF4 (UniProt Q92544)
inactive: [1] -0.01 | [2] -0.012 | [3] 0.016 | [4] -0.009 | [5] 0.007

TM7SF3 (UniProt Q9NS93)
inactive: [1] -0.143 | [2] -0.043 | [3] -0.004 | [4] -0.033 | [5] 0.018

TMBIM1 (UniProt Q969X1)
inactive: [1] 0.063 | [2] 0.037 | [3] 0.031 | [4] -0.22 | [5] -0.015

THOC7 (UniProt Q6I9Y2)
inactive: [1] -0.033 | [2] 0.044 | [3] -0.027 | [4] 0.011 | [5] 0.044

THEM4 (UniProt Q5T1C6)
inactive: [1] 0.058 | [2] 0.039 | [3] 0.059 | [4] -0.079 | [5] -0.063

TIPRL (UniProt O75663)
inactive: [1] -0.026 | [2] 0.016 | [3] -0.02 | [4] 0.013 | [5] 0.003

TMED8 (UniProt Q6PL24)
inactive: [1] 0.009 | [2] 0.039 | [3] 0.023 | [4] 0.004 | [5] 0.024

TLN2 (UniProt Q9Y4G6)
inactive: [1] 0.028 | [2] 0 | [3] 0.004 | [4] 0.021 | [5] -0.032

THUMPD1 (UniProt Q9NXG2)
inactive: [1] 0.027 | [2] 0.005 | [3] 0.01 | [4] -0.033 | [5] 0.002

TKT isoform 2 (UniProt P29401)
inactive: [1] 0.021 | [2] 0.004 | [3] 0 | [4] -0.023 | [5] 0.008

TMEM181 (UniProt Q9P2C4)
inactive: [1] 0.062 | [2] -0.05 | [3] 0.179 | [4] -0.049 | [5] -0.009

TMED4 (UniProt Q7Z7H5)
inactive: [1] 0.003 | [2] 0.027 | [3] 0.022 | [4] 0.005 | [5] -0.007

TIMM13 (UniProt Q9Y5L4)
inactive: [1] 0.049 | [2] -0.044 | [3] -0.012 | [4] -0.045 | [5] 0.072

TJP2 isoform 7 (UniProt Q9UDY2)
inactive: [1] 0.025 | [2] -0.009 | [3] 0.06 | [4] 0.035 | [5] 0.032

TM9SF2 (UniProt Q99805)
inactive: [1] -0.028 | [2] 0.008 | [3] 0.02 | [4] -0.021 | [5] -0.038

TMEM106C (UniProt Q9BVX2)
inactive: [1] 0.04 | [2] 0.21

TLCD1 (UniProt Q96CP7)
inactive: [1] 0.032 | [2] 0.134 | [3] 0.011 | [4] -0.068 | [5] 0.068

TLR9 isoform 4 (UniProt Q9NR96)
inactive: [1] -0.004 | [2] 0.097 | [3] -0.079 | [4] 0.077 | [5] -0.15

TMEM126A (UniProt Q9H061)
inactive: [1] 0.02 | [2] 0.002 | [3] -0.03 | [4] 0.001 | [5] 0.028

TM9SF3 (UniProt Q9HD45)
inactive: [1] 0.018 | [2] -0.027 | [3] 0.016 | [4] 0.001 | [5] -0.003

THRAP3 (UniProt Q9Y2W1)
inactive: [1] -0.001 | [2] 0.039 | [3] 0.011 | [4] -0.05 | [5] -0.051

THTPA (UniProt Q9BU02)
inactive: [1] -0.032 | [2] -0.037 | [3] 0.055 | [4] 0.066 | [5] 0.001

TGFBRAP1 (UniProt Q8WUH2)
inactive: [1] -0.035 | [2] 0.024 | [3] 0 | [4] 0.05 | [5] -0.014

TMEM186 (UniProt Q96B77)
inactive: [1] 0.023 | [2] 0.004 | [3] -0.168 | [4] 0.057 | [5] 0.164

TMEM14C (UniProt Q9P0S9)
inactive: [1] -0.131 | [2] -0.031 | [3] 0.14 | [4] -0.015

TIMM23 (UniProt O14925)
inactive: [1] 0.016 | [2] 0.016 | [3] -0.046 | [4] -0.02 | [5] -0.071

TMEM127 (UniProt O75204)
inactive: [1] -0.041 | [2] -0.125 | [3] 0.173 | [4] -0.105

TLK2 isoform 2 (UniProt Q86UE8)
inactive: [1] 0.014 | [2] -0.027 | [3] 0.033 | [4] -0.015 | [5] -0.075

THOP1 (UniProt P52888)
inactive: [1] -0.005 | [2] 0.024 | [3] -0.002 | [4] -0.007 | [5] -0.027

TMEM173 (UniProt Q86WV6)
inactive: [1] -0.072 | [2] 0.081 | [3] 0.018 | [4] -0.065 | [5] 0.008

TIMM10 (UniProt P62072)
inactive: [1] 0.07 | [2] -0.025 | [3] -0.048 | [4] 0.057 | [5] 0.032

TKFC (UniProt Q3LXA3)
inactive: [1] 0.045 | [2] 0.027 | [3] -0.003 | [4] -0.017 | [5] -0.004

TMA16 (UniProt Q96EY4)
inactive: [1] 0.008 | [2] 0.091 | [3] -0.015 | [4] 0.052 | [5] 0

THG1L (UniProt Q9NWX6)
inactive: [1] 0.02 | [2] 0 | [3] 0.029 | [4] -0.027 | [5] 0.025

16 successive records out of the list so far, for reference:
TLCD1 (UniProt Q96CP7)
inactive: [1] 0.032 | [2] 0.134 | [3] 0.011 | [4] -0.068 | [5] 0.068

TLR9 isoform 4 (UniProt Q9NR96)
inactive: [1] -0.004 | [2] 0.097 | [3] -0.079 | [4] 0.077 | [5] -0.15

TMEM126A (UniProt Q9H061)
inactive: [1] 0.02 | [2] 0.002 | [3] -0.03 | [4] 0.001 | [5] 0.028

TM9SF3 (UniProt Q9HD45)
inactive: [1] 0.018 | [2] -0.027 | [3] 0.016 | [4] 0.001 | [5] -0.003

THRAP3 (UniProt Q9Y2W1)
inactive: [1] -0.001 | [2] 0.039 | [3] 0.011 | [4] -0.05 | [5] -0.051

THTPA (UniProt Q9BU02)
inactive: [1] -0.032 | [2] -0.037 | [3] 0.055 | [4] 0.066 | [5] 0.001

TGFBRAP1 (UniProt Q8WUH2)
inactive: [1] -0.035 | [2] 0.024 | [3] 0 | [4] 0.05 | [5] -0.014

TMEM186 (UniProt Q96B77)
inactive: [1] 0.023 | [2] 0.004 | [3] -0.168 | [4] 0.057 | [5] 0.164

TMEM14C (UniProt Q9P0S9)
inactive: [1] -0.131 | [2] -0.031 | [3] 0.14 | [4] -0.015

TIMM23 (UniProt O14925)
inactive: [1] 0.016 | [2] 0.016 | [3] -0.046 | [4] -0.02 | [5] -0.071

TMEM127 (UniProt O75204)
inactive: [1] -0.041 | [2] -0.125 | [3] 0.173 | [4] -0.105

TLK2 isoform 2 (UniProt Q86UE8)
inactive: [1] 0.014 | [2] -0.027 | [3] 0.033 | [4] -0.015 | [5] -0.075

THOP1 (UniProt P52888)
inactive: [1] -0.005 | [2] 0.024 | [3] -0.002 | [4] -0.007 | [5] -0.027

TMEM173 (UniProt Q86WV6)
inactive: [1] -0.072 | [2] 0.081 | [3] 0.018 | [4] -0.065 | [5] 0.008

TIMM10 (UniProt P62072)
inactive: [1] 0.07 | [2] -0.025 | [3] -0.048 | [4] 0.057 | [5] 0.032

TKFC (UniProt Q3LXA3)
inactive: [1] 0.045 | [2] 0.027 | [3] -0.003 | [4] -0.017 | [5] -0.004

The list goes on:

TLE5 isoform 2 (UniProt Q08117)
inactive: [1] -0.05 | [2] 0.073 | [3] 0.014 | [4] -0.019 | [5] 0.042

TIMM8B (UniProt Q9Y5J9)
inactive: [1] 0.015 | [2] 0.064 | [3] -0.025 | [4] 0.019 | [5] 0.162

THAP12 (UniProt O43422)
inactive: [1] -0.01 | [2] 0.058 | [3] 0.018 | [4] -0.016 | [5] 0.087

THOC3 (UniProt Q96J01)
inactive: [1] -0.01 | [2] 0.027 | [3] -0.008 | [4] 0.049 | [5] 0.028

TMEM135 (UniProt Q86UB9)
inactive: [1] 0.063 | [2] -0.041 | [3] -0.062 | [4] -0.057 | [5] 0.082

TIMM50 isoform 2 (UniProt Q3ZCQ8)
inactive: [1] -0.035 | [2] 0.015 | [3] 0.01 | [4] -0.006 | [5] 0.004

THUMPD3 (UniProt Q9BV44)
inactive: [1] 0.004 | [2] 0.012 | [3] -0.008 | [4] -0.008 | [5] -0.028

TMEM126B (UniProt Q8IUX1)
inactive: [1] 0.063 | [2] 0.005 | [3] 0.058 | [4] 0.017 | [5] -0.033

TMED9 (UniProt Q9BVK6)
inactive: [1] -0.01 | [2] 0.001 | [3] 0.037 | [4] 0.023 | [5] 0.03

TIPIN (UniProt Q9BVW5)
inactive: [1] 0.004 | [2] 0.034 | [3] -0.002 | [4] -0.037 | [5] -0.066

TIMM9 (UniProt Q9Y5J7)
inactive: [1] -0.002 | [2] -0.163 | [3] -0.046 | [4] -0.033 | [5] 0.118

TMEM141 (UniProt Q96I45)
inactive: [1] 0.051 | [2] -0.063 | [3] -0.038 | [4] -0.088 | [5] -0.032

TMEM167A (UniProt Q8TBQ9)
inactive: [1] -0.073 | [2] -0.048 | [3] 0.032 | [4] -0.05 | [5] -0.149

THOC6 (UniProt Q86W42)
inactive: [1] 0.037 | [2] -0.015 | [3] 0.033 | [4] 0.015 | [5] -0.003
